Experimental findings from patent publication US6991916B2 (Pfizer Inc., priority 2000, dated 2006) are described below.

The nature of the data set: general procedure: Fmoc solid-phase peptide synthesis; FMOC-PAL-PEG-PS resin; HBTU.

“5-carboxyfluorescein-Gly-Gly-dPhe-Leu-Arg-Arg-Val-Cys(H)-βAla-NH2” returned a crude mass (whole synthesis) of 50 mg. In addition, for the setting “whole synthesis, scale of the general procedure 0.25 mmol”, the crude yield turned out to be 54%.
As for “5-carboxyfluorescein-Gly-Gly-dPhe-Leu-Arg-Arg-Val-Cys(5-(and 6)tetramethylrhodamine)-βAla-NH2”, the conjugation yield (conjugation step) turned out to be 8%.
